Results on 3 molecules are retold here after patent US20220002395A1 (FAPON BIOTECH, published 2022).

Test [1] deals with T1, Plasmodium falciparum histidine-rich protein II (HRP-II) (Plasmodium falciparum) (UniProt P05227).
T1 sequence (looked up): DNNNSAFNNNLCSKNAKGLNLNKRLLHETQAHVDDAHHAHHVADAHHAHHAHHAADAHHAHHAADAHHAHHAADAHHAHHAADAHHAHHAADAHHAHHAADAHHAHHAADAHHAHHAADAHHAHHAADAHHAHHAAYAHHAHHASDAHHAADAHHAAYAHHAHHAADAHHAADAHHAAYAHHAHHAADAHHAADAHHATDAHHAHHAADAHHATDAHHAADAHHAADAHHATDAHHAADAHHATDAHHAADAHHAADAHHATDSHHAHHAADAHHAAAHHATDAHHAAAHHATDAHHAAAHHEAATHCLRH
The test can be described thus: indirect ELISA, coated HRP-II. For orientation: ELISA stands for enzyme-linked immunosorbent assay.

Test [2] has as its target T1, Plasmodium falciparum histidine-rich protein II (HRP-II) (Plasmodium falciparum). The test can be described thus: ELISA activity and ELISA-derived affinity.
Test [3] shares this target. As to the kind of experiment: indirect ELISA, coated MA-HRPII Ag.

Residue numbers refer to the chain shown, from its start. No constants are given. Whether binding was seen depends on the method and setting. Some results given as binding are weak or reduced against the parent protein; the word gives no strength. Tags and fused reporters may be left off the sequences shown.

B1: Anti-HRP-II 3R5 monoclonal antibody (recombinant, expressed in CHO cells; WT) (antibody, mouse IgG2b, kappa, V domains shown)
VH: EVQLQQSGPEVVKPGASVKISCKASGSTLTEYYMNWVKQSHGKGLEWIGDLNPINGGTPYQQKFRDKATLTVDKSSNTAYMELRSLTSEDSALYYCTRGAEEYWGQGTTLTVSS
VL: DVVLTQTPLSLSVTIGQPASISCKSSQSIIYSNGKIYINWFQQRPGQSPKRLMYQLSKIDPGIPDRFSGSGSETDFTLKISRVEAEDLGVYYCLQGTYSPNTFGGGTKLEIKR
notes: Mouse IgG; also called Anti-HRP-H3R5; CHO transient-transfected cell supernatant
With B1, the binding result in test [1] is recorded as “binds”.

B2: Mutation 1 (antibody, mouse IgG2b, kappa, V domains shown)
VH: B1 VH with E31D, P59A, E102D
VL: B1 VL with I38L, I59L, N101Q
notes: also called Variant 1
Take B2: the binding result in test [2] and in test [3] was “binds” throughout.

B3: Mutation 2 (antibody, mouse IgG2b, kappa, V domains shown)
VH: B1 VH
VL: B1 VL with I38L
notes: WT as framework
For the molecule B3, the binding entry in test [3] is “binds”.
